Measurements taken from article PMC11957698.
Results are given in words; binding and its absence hold for the method and conditions named. In cells and extracts the contact can be indirect. Some results given as binding are weak or reduced against the parent protein; the word gives no strength.

The chains behind the UniProt entries cited, without tags or fusion partners.
UniProt P31001: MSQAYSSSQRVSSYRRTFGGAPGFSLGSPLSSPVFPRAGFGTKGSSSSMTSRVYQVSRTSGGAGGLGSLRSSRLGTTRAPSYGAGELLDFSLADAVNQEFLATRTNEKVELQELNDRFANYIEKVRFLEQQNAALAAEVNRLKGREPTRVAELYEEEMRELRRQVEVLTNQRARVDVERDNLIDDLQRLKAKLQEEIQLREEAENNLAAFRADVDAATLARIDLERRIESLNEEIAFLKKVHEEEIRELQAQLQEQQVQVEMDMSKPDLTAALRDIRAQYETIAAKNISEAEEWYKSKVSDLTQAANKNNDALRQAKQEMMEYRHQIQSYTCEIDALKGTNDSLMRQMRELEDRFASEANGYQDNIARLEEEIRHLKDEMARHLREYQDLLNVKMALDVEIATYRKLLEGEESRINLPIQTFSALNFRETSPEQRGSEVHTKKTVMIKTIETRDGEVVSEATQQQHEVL

B1: αB-crystallin (CRYAB), WT (protein, UniProt P23927 1-175)
chain: MDIAIHHPWIRRPFFPFHSPSRLFDQFFGEHLLESDLFSTATSLSPFYLRPPSFLRAPSWIDTGLSEMRLEKDRFSVNLDVKHFSPEELKVKVLGDVIEVHGKHEERQDEHGFISREFHRKYRIPADVDPLTITSSLSSDGVLTVNGPRKQVSGPERTIPITREEKPAVAAAPKK
B2: CRYAB S59A (phosphorylation-deficient knock-in) (protein, UniProt P23927 1-175)
chain: MDIAIHHPWIRRPFFPFHSPSRLFDQFFGEHLLESDLFSTATSLSPFYLRPPSFLRAPAWIDTGLSEMRLEKDRFSVNLDVKHFSPEELKVKVLGDVIEVHGKHEERQDEHGFISREFHRKYRIPADVDPLTITSSLSSDGVLTVNGPRKQVSGPERTIPITREEKPAVAAAPKK
B3: CRYAB S59D (phosphomimetic knock-in) (protein, UniProt P23927 1-175)
chain: MDIAIHHPWIRRPFFPFHSPSRLFDQFFGEHLLESDLFSTATSLSPFYLRPPSFLRAPDWIDTGLSEMRLEKDRFSVNLDVKHFSPEELKVKVLGDVIEVHGKHEERQDEHGFISREFHRKYRIPADVDPLTITSSLSSDGVLTVNGPRKQVSGPERTIPITREEKPAVAAAPKK

Molecular target: desmin (mouse (endogenous in myocardium)) (UniProt P31001)
Assay: co-IP; IP with anti-desmin antibody on Protein A/G Sepharose from myocardial extracts of unstressed young adult WT, S59A and S59D mice (RIPA homogenate, 600g pellet dissolved in PBS with 1% SDS and 5 mM EDTA, sonicated, diluted 10-fold); blot for CRYAB

binding, binds:
B1
B2
B3
